± gives the standard deviation. The entries are a selection whose mix differs from that of the whole data set. The uncertainty is large for many entries.
Each sequence was assayed on MILI (PIWIL2) piRISC loaded with Kctd7 piRNA (26 nt) (assay: pre-steady-state target cleavage rate (min^-1); MIWI and MILI are mouse PIWI proteins and EfPiwi is from a freshwater sponge; tags in brackets are library labels; higher = faster piRNA-guided slicing of the target). Conditions: guide: Kctd7 piRNA 5'p-UGUUAAUCUCUCAGAGAAGGUGACAG; auxiliary factor: 500 nM mouse GTSF1.
Procedure, shortened: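 Active affinity-purified piRISC (1 nM) loaded with one synthetic guide was mixed with a transcribed, DNA-blocked target RNA library (0.1 nM), with or without 500 nM GTSF1 partner protein, in HEPES–potassium acetate buffer at 33 °C for 0–8 or 0–960 min. Uncleaved targets were sequenced, normalised to depth and to weakly complementary targets, and pooled across three trials, with k3 capped at 0.0001 min^-1. The pre-steady-state cleavage rate was determined with a burst-and-steady-state fit.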

Sequence	pre-steady-state target cleavage rate
UAGUGACAGACCUUCUCUGAGUCAUUAACA	0.001 ± 0.0092
UAGUGACAGACCAUCUCUGAGAGAUUAUGA	0.0015 ± 0.0073
UAGUGACAGUGGAAGAGACUCAGAUUAACA	0.000304 ± 0.013
UAGUGACACACCUUCUCUGAGUGAUUUACA	0.000912 ± 0.013
UAGUGACAGUGCUUCUCUGGAGAUUAACA	0.00111 ± 0.0057
UAGUGACAGUGGAAGACUGAGUGAUUAACA	0.000145 ± 0.017
UAGUGACACACCUUCUCUGACUGAUUUUGA	0.000102 ± 0.088
UAGUGACAGUGGAACUCUGACUCAUUAACA	0.000327 ± 0.019
UAGUGACACACCUUCUCUGCAGAGAUUAACA	0.00221 ± 0.0052
UAGUGAGUCACCUUCUCUGAGAGAUUAAA	0.202 ± 0.045
UAGUGACAGACCUUCUCUGAGAAUUAACA	0.000676 ± 0.016
UAGUGACAGUGGAACUCUGAGAGAUUAACA [g2:g16:cont:t1A]	0.000448 ± 0.013
UAGUGACAGACCUUGUCUGAGUGAUUAACA	0.00271 ± 0.0033
UAGUGACACUGGUUCUCUGAGAGAUUAUGA	0.00246 ± 0.0035
UAGUGUGUCUGCUUCUCUGAGAGAUAUUGA	0.000203 ± 0.025
UAGUGACAGUGGAACUCUGAGCGAUUAACA	0.00705 ± 0.0085
UAGUGACAGUCCUUCUCUGACACAUUAACA	0.000318 ± 0.02
UAGUGACAGUCCUUCUCUGAGAGAUAACA	0.000266 ± 0.0069
UAGUCUGUCACCUUCUCUGAGAGAUUAAA	0.13 ± 0.026
UAGUGACAGACCUUCAGAGAGAGAUUAACA	0.00113 ± 0.013
UAGUGACAGUGCUUCUCUGAGAGAUAAUCA	0.000617 ± 0.0056
UAGUGACAGUGCUUCUCUCGAGAGAUUAACA	0.000794 ± 0.0097
UAGUGACAGACCUUCUGACAGAGAUUAACA	0.000752 ± 0.015
UAGUGACUCACCUUCUCUGUGUGAUUAACA	0.000738 ± 0.011

Sequence	pre-steady-state target cleavage rate
UAGUGACAGUCCUUCUCAUGAGAGAUUAACA	0.000962 ± 0.0084
UAGUGACAGUGCUUCUCUCUGAGAUUAACA	0.001 ± 0.0044
UAGUGACAGUGGAUACUCUGAGAGAUUAACA	0.000339 ± 0.0082
UAGUGACAGUGGAAGAGAGACAGAUUAUCA	0.000169 ± 0.024
UAGUGACAGUGCUUCUCUGACUCAUUAAGA	0.000143 ± 0.023
UAGUGACAGUGGAACUCUGACACAUUAACA	0.000165 ± 0.025
UAGUGACAGUCCUUCUCUGAGGAUUAACA	0.000405 ± 0.0087
UAGUGACAGUGGAACUCUGAGAGAUUAACCA	0.000398 ± 0.014
UAGUGAGUCACCUUCUCUGAGAGAUUAAUA	0.217 ± 0.03
UAGUGACAGUGCUACACUGAGAGAUUAACA	0.00282 ± 0.0037
UAGUGACAGUGGAAGAGACUGUCUUUAACA	0.000402 ± 0.017
UAGUGACAGUGCUUCUCUGAGACAUAAACA	< 0.0001
UAGUGACAGUGGAAGUCUGAGAGAAUUAACA	0.00012 ± 0.022
UAGUGACAGUGGAAGAGUGAGAGAUUCAACA	0.00026 ± 0.025
UAGUGACAGUGGAAGAGACUCAGAUUAUCA	0.000158 ± 0.01
UAGUGACAGUGGUUCUUCUGAGAGAUUAACA	0.000573 ± 0.0052
UAGUGACUCUGGUUCUCUGAGAGAUUAAGA	0.00016 ± 0.025
UAGUGACAGACCUUCUCUGUGAGAAUAACA	0.00171 ± 0.0077
UAGUCAGUCACCUUCUCUGAGAGUUUAACA	0.261 ± 0.041
UAGUCUGACACCUUCUCUGAGUGAUUAACA	0.00145 ± 0.0041
UAGUGACAGUCCUUCAGUGAGAGAUUAUGA	0.00151 ± 0.0057
UAGUGACUCACCUUCUCUCUGAGAUUAAGA	0.00113 ± 0.008
UAGUGUGUCACCUUCUGUCAGAGAUUAACA	0.039 ± 0.0051
UAGUGACACACCUUCUCUGAGUCAUUUUGA	0.000496 ± 0.019

A few values from above.
pre-steady-state target cleavage rate with UAGUGACAGUGGAAGAGACUCAGAUUAUCA reads 0.000158 ± 0.01
pre-steady-state target cleavage rate with UAGUGACACACCUUCUCUGAGUCAUUUUGA reads 0.000496 ± 0.019
pre-steady-state target cleavage rate with UAGUGACAGUCCUUCUCUGACACAUUAACA reads 0.000318 ± 0.02

Continuation:

Sequence	pre-steady-state target cleavage rate
UAGUGACAGUGGAUCUCUGACUCAUUAACA	0.000322 ± 0.0087
UAGUGAGUCACCUUCUCUGAGAGAUUACA	0.153 ± 0.033
UAGUGACAGUGGAACUCUGAGAGUUUAUCA	0.000115 ± 0.048
UAGUGACAGUGCUUCUCUCAGAGAAUAACA	0.00118 ± 0.0065
UAGUGACUCACCUUCUCUGUCUGAUUAACA	0.00106 ± 0.0077
UAGUGACUCACCUUCUCUGAGAGUUAAACA	0.0666 ± 0.014
UAGUGACUCACCUUCUCUGAGCAGAUUAACA	0.00131 ± 0.0081
UAGUGACAGUGGUUCUCUGAGAGAUUAGCA	0.000466 ± 0.0077
UAGUGACAGUCGUUCUCUGAGAGAUAAACA	0.00167 ± 0.0052
UAGUGACAGACCUUCUCUGGAGAGAUUAACA	0.000649 ± 0.017
UAGUGUGUCACGAACUCUGAGAGAUUAUGA	0.00125 ± 0.0077
UAGUGAGUGACCUUCUCUGAGACAUUAACA	0.0267 ± 0.0076
UAGUGACACACCUUCUCUGAGUCAUUAUGA	0.00049 ± 0.013
UAGUGACAGUCCUUCACUGAGUGAUUAACA	0.00216 ± 0.0049
UAGUGACAGUGGAACUCUGAGAAUUAACA	0.000158 ± 0.039
UAGUGACAGUCCUUCUCUGAGUAGAUUAACA	0.00139 ± 0.0046
UAGUGACAGUCCUUCUCUGAAGAUUAACA	0.000114 ± 0.028
UAGUGACAGUGCUUCUCUGAGAGUUAAACA	0.000186 ± 0.0084
UAGUGACAGUGGAAGAGACUCAGAUUAACU [g2:g9:cont:t1U]	0.000457 ± 0.015
UAGUGAGUCACCUUCUCUGUGAGAUAAACA	0.0242 ± 0.0096
UAGUGACAGUCGUUCUCUGAGAGAAUAACA	0.00086 ± 0.0095
UAGUGACAGUGGAAGUCUGACUCAUUAACA	0.000208 ± 0.017
UAGUGACAGACCUUCUACUGAGAGAUUAACA	0.000462 ± 0.034

Source: the supplement of paper PMC10338343
